{"sequences": {"note": "Protein sequences, listed by entry. Tags and fused reporters are not part of them.", "UniProt P31947": "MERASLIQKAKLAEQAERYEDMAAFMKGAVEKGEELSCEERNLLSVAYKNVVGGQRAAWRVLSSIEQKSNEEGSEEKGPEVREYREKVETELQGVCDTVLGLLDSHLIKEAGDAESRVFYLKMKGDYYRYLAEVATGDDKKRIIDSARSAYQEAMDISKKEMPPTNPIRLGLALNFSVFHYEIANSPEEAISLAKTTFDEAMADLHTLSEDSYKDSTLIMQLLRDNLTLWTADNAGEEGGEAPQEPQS"}, "source": "paper PMC3790753", "target": "T1, Pkp-3-myc (full-length myc-tagged plakophilin-3) (human) (UniProt Q9Y446)", "T1 sequence": "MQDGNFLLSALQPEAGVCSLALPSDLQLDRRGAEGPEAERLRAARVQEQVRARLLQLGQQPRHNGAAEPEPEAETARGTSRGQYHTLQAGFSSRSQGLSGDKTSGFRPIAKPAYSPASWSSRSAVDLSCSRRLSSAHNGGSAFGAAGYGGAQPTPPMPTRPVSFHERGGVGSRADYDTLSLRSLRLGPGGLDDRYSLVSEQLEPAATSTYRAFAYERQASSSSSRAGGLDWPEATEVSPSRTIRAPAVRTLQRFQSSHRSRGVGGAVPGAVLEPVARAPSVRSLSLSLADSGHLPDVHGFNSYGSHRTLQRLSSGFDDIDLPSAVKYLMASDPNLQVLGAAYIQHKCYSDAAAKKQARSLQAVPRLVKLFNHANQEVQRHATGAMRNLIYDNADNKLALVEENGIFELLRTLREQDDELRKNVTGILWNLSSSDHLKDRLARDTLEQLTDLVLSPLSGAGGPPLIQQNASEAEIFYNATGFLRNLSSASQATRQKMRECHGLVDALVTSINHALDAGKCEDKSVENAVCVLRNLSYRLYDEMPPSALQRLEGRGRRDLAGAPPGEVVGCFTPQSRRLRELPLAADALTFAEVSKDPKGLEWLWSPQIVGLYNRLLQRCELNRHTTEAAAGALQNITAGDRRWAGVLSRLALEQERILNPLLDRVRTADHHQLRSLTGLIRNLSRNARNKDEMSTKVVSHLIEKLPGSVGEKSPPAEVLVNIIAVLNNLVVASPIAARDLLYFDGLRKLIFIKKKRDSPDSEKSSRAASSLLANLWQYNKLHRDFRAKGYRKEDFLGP", "test": "affinity purification with mass spectrometry; myc-tagged plakophilin-3 immunopurified from A431 cell lysates; immune complexes trypsin digested, peptides identified by mass spectroscopy", "note": "No constants are given. Whether binding was seen depends on the method and setting. In cells and extracts the contact can be indirect. A yes stands for co-enrichment or nearness to the bait. Other partners may have been found. Where a sequence is shown, tags or fusion partners need not be part of it.", "data": [{"substance": "stratifin (14-3-3 σ) (endogenous) (from UniProt P31947 1-248)", "values": [{"measurement": "binding", "value": "binds"}]}]}
